# Source: PubChem BioAssay AID1347076 (National Center for Advancing Translational Sciences (NCATS), 2019)
# Screen size: about 400,000 compounds; about 13,000 (3.2%) were called active. This list was built around the results that the source calls inconclusive (neither active nor inactive); the mix of calls is not that of the screen. Calls follow the shape of the dose curve; as a rule, active = well fitted cell-killing curve with a large enough effect; inconclusive = small, poorly fitted or top-dose-only effect, or effect the other way; inactive = flat fitted curve, though single readings scatter. Potencies beside an inconclusive call are fits to weak or partial responses and may not hold up.
# Assay: qHTS assay for MDR1-selective chemotherapeutics: Primary screen using the drug-selected MDR subline cells KB-V1; also: nearly all actives have a fitted effect of over 60% in size
# Details: KB-V1 MDR cells viability, CellTiter-Glo, 72 h; activity change, negative = cytotoxicity: at 46.1 µM (top of the series)
# Source text: A prime difficulty in effectively treating cancer is the development of cellular resistance to multiple structurally unrelated anticancer drugs, a phenomenon known as multidrug resistance (MDR). […] Numerous strategies to overcome P-gp-mediated MDR have been explored, including the design of drugs that evade recognition and efflux, and development of inhibitors to block efflux and restore drug accumulation. […] An alternative approach is to exploit resistance by identifying drugs that target MDR cells over the non-resistant parental cells from which they were selected. […] The development of MDR1-selective agents represents a new strategy for resolving multidrug resistance, as it remains a long-standing clinical challenge for cancer chemotherapy.
# Our goal is to identify compounds that selectively kill P-gp-expressing MDR cells. We will identify MDR1-selective compounds by comparing toxicity of compounds in the screening library against parental, drug-naive (KB-3-1) adenocarcinoma cells as well as their drug-selected MDR sub-line (KB-V1). The differential toxicity of compounds against these two cell lines will be used to identify MDR1-selective compounds, whose cytotoxicity is potentiated, rather than diminished, by P-gp expression. This assay will be utilized to conduct a quantitative high-throughput screen (qHTS) in collaboration with the NIH Chemical Genomics Center to identify selective agents, and probe hits arising from the screen will be validated using secondary assays and characterized through a well-established follow-up research program. This screen was run against the entire NCGC library collection of about 400,000 compounds.
# NIH Molecular Libraries Probe Production Network [MLPCN]
# NIH Chemical Genomics Center [NCGC]
# PI: Michael Gottesman, National Cancer Institute, NIH
# Briefly, 5 microL of media containing either KB-V1 cells (columns 1-2, 4-48) are dispensed into Greiner white, treated solid-bottom 1536-well assay plates (media-only control is added to column 3). Compounds are then transferred via Kalypsys pin tool equipped with 1536-pin array (10 nL slotted pins, V&P Scientific, San Diego, CA). Following addition of compound, the plates are incubated at 37 degrees C for 72 hours. CellTiter-Glo (2.5 µL/well) is then added, and the plates are read in a ViewLux reader (Perkin-Elmer, clear luminescence filter, 1 second exposure, 1x binning) following a 10 minute incubation. All cells are dispensed in DMEM phenol-red free media containing 10% FBS.
# Library plates were screened starting from the lowest and proceeding to the highest concentration. Vehicle-only plates, with DMSO being pin-transferred to columns 5-48, will be inserted uniformly at the beginning and the end of each library in order to monitor and record any shifts in the background, which can be affected by reagent dispensers or loss in enzyme activity over time. Screening data will be corrected, normalized, and concentration-effect relationships will be derived by using publicly-available NCGC, NCATS curve fitting algorithms (http://ncgc.nih.gov/pub/openhts).
# % is scaled to controls: 0 for no effect and ±100 for the full control effect; potency is read from the fitted curve at half-maximal effect.
Compound,Potency,"activity change, negative = cytotoxicity"
CCOc1ccc(Cc2noc3c2C(=O)CC(C)(C)C3)cc1OCC,"inconclusive: 20.6 µM [cytotoxic, partial curve]",–
COc1cccc(CNc2ccc(S(N)(=O)=O)cc2)c1OCc1ccccc1F,active: 20.6 µM,–
COCCn1c(=N)c(C(=O)NCc2ccco2)cc2c(=O)n3cc(C)ccc3nc21,"inconclusive: 29.1 µM [rising, single point]",–
Cc1ccc2nc(NCCO)nc(-c3ccccc3)c2c1,active: 11.6 µM,–
O=C(CCCN1C(=O)CCC1=O)Nc1ccc(Cl)c(C(F)(F)F)c1,"inconclusive: 20.6 µM [rising, single point]",–
Cc1ccc(-n2c(-c3ccco3)nc3c(cnn3-c3ccccc3C)c2=O)cc1,"inconclusive: 20.6 µM [rising, single point]",–
CC(C)(C)C(=O)N(Cc1nc2ccccc2c(=O)[nH]1)Cc1cccs1,"inconclusive: 7.31 µM [cytotoxic, full curve, poor fit]",–
CCCC(C(=O)NC1CCCC1)N(CC1CCCO1)C(=O)CNS(=O)(=O)c1ccc(F)cc1 (stereo not given),inactive,–
O=C(COc1ccc(-n2ccnc2)cc1)Nc1cccc(Cl)c1,active: 5.8 µM,–
COCCN(C(=O)Cc1csc(-c2cccc(Cl)c2)n1)c1c(N)n(Cc2ccccc2)c(=O)[nH]c1=O,inactive,–
C=CCc1cc(OC)ccc1OCCOCCN1CCc2ccccc2C1,"inconclusive: 7.31 µM [cytotoxic, partial curve]",–
Cc1cc(C(=O)CSc2nnc(-c3ccccc3F)o2)c(C)n1Cc1cccs1,"inconclusive: 14.6 µM [cytotoxic, single point]",–
CCC(CC)C(C(=O)NC1CCCC1)N1CCN(c2cc(C)nc3ccccc23)CC1 (stereo not given),"inconclusive: 9.2 µM [cytotoxic, partial curve, poor fit]",–
CCOC(=O)c1ccc(NS(=O)(=O)c2cc3c4c(c2)CCN4C(=O)CC3)cc1,"inconclusive: 18.4 µM [cytotoxic, single point]",–
CCCC(=O)c1ccc(OC(=O)c2c(-c3ccccc3Cl)noc2C)cc1,inactive,–
CC(C)CN(CC(C)C)S(=O)(=O)N1CCC(C(=O)NC2CCCCCCC2)CC1,"inconclusive: 1.84 µM [cytotoxic, full curve]",–
CC(=O)N1C(=O)NC2=C(C(=O)CCC2)C1c1cccc([N+](=O)[O-])c1 (stereo not given),"inconclusive: 13 µM [rising, partial curve]",–
Cc1ccccc1SCC(=O)OCC(=O)NCc1ccccc1,inactive,–
CC(C)(C)NC(=O)COc1ccc(CNCc2cccs2)cc1,"inconclusive: 20.6 µM [cytotoxic, single point]",–
O=C(CC1C=Cc2ccccc2N1C(=O)c1ccccc1)c1ccccc1 (stereo not given),"inconclusive: 29.1 µM [cytotoxic, single point]",–
CCC(C)[C@H](NC(=O)Nc1cccc(Cl)c1)C(=O)O (stereo not given in full),inactive,–
COCC(=O)N(Cc1ccco1)c1nnc(C2CCOC2)s1 (stereo not given),–,inconclusive: -34.8%
CC1CN(C(=O)c2cccs2)CCN1C(=O)c1cccs1 (stereo not given),inactive,–

# In a second layout: entries from further up.
Compound | Potency | activity change, negative = cytotoxicity
COCCN(C(=O)Cc1csc(-c2cccc(Cl)c2)n1)c1c(N)n(Cc2ccccc2)c(=O)[nH]c1=O | inactive | –
C=CCc1cc(OC)ccc1OCCOCCN1CCc2ccccc2C1 | inconclusive: 7.31 µM [cytotoxic, partial curve] | –

# (continued)

Compound,Potency,"activity change, negative = cytotoxicity"
CCOC(=O)[C@]12CCC=C1N(Cc1cccc3ccccc13)C(=O)[C@H](CC(=O)N1CCC(c3ccccc3)CC1)C2,"inconclusive: 6.51 µM [cytotoxic, partial curve]",–
O=C(NC1CCCCC1)c1ccc2ccccc2c1O,"inconclusive: 25.9 µM [cytotoxic, single point]",–
Cc1cc(=O)oc2cc(OCC3CC(c4ccc(Br)cc4)=NO3)ccc12 (stereo not given),active: 20.6 µM,–
Cc1ccccc1C(=O)N/N=C/c1ccc(Sc2ccccn2)o1,active: 20.6 µM,–
Cc1ccc(OCCC(=O)OCC(=O)Nc2cc(S(=O)(=O)N(C)C)ccc2C)cc1,"inconclusive: 29.1 µM [rising, partial curve, poor fit]",–
C[C@@]12C(=O)Nc3ccc(F)cc3C(=O)N1[C@H]1c3cc(Br)ccc3OC[C@@H]1[C@@H]2c1ccccc1,"inconclusive: 29.1 µM [cytotoxic, single point]",–
CCOc1ccc(CCNC(=O)c2cc(S(=O)(=O)N3CCOCC3)ccc2C)cc1OCC,"inconclusive: 20.6 µM [cytotoxic, single point]",–
CC(/C=N/NC(=O)c1ccccc1C)=C\c1ccccc1,inactive,–
Cc1ccc(C(=O)Nc2cccc(C(F)(F)F)c2)cc1Nc1ncnc2nc[nH]c12,"inconclusive: 20.6 µM [cytotoxic, partial curve]",–
CCOC(=O)c1sc2nc(C3CC3)cc(-c3ccc(OC)cc3)c2c1N,inactive,–
COc1ccc(CCNC(=O)C2CCC(C(C)(C)C)CC2)cc1OC (stereo not given),inactive,–
COc1cccc(NC(=O)CN(C)C(=O)c2cc(CN3C(=O)c4ccccc4C3=O)ccc2OC)c1,"inconclusive: 29.1 µM [rising, single point]",–
Cc1ccc(C(=O)OCC(=O)N2CCC(C)CC2)cc1S(=O)(=O)N1CCCCC1,"inconclusive: 29.1 µM [cytotoxic, single point]",–
CC(NC(=O)C1CCN(S(=O)(=O)c2ccc3nc4c(c(C(=O)O)c3c2)CCCC4)CC1)c1ccccc1 (stereo not given),"inconclusive: 29.1 µM [rising, single point]",–
Cc1ccccc1N(CC(=O)NCCSC1CCCCC1)S(=O)(=O)c1ccccc1,active: 10.3 µM,–
O=c1n(Cc2ccccc2Cl)nc2n1-c1ccccc1SC2,"inconclusive: 5.8 µM [cytotoxic, full curve, poor fit]",–
COc1cccc(NC(=O)c2ccc3nc(Cc4ccccc4)oc3c2)c1,"inconclusive: 18.4 µM [cytotoxic, single point]",–
CC(C)(C)c1ccc(NC(=O)Nc2ccc(F)cc2)cc1,inactive,–
CC(=O)c1cccc(NC(=O)C(C)OC(=O)c2ccc(Br)o2)c1 (stereo not given),"inconclusive: 29.1 µM [rising, single point]",–
CN(CC(=O)Nc1ccc(Cl)c(Cl)c1)C(=O)C1CCC1,inactive,–
Cc1ccc(S(=O)(=O)NCC23C=CC(O2)C2C(=O)N(c4ccccc4)C(=O)C23)cc1 (stereo not given),inactive,–
O=C(CNC(=O)c1ccccc1F)OCC(=O)N1CCCCC1,"inconclusive: 9.2 µM [rising, partial curve]",–
